## Primary screen of a compound library

Amino acid sequences for entries named in this document (tags omitted). Residues count along the entry.
UniProt I6X8D2, whole entry: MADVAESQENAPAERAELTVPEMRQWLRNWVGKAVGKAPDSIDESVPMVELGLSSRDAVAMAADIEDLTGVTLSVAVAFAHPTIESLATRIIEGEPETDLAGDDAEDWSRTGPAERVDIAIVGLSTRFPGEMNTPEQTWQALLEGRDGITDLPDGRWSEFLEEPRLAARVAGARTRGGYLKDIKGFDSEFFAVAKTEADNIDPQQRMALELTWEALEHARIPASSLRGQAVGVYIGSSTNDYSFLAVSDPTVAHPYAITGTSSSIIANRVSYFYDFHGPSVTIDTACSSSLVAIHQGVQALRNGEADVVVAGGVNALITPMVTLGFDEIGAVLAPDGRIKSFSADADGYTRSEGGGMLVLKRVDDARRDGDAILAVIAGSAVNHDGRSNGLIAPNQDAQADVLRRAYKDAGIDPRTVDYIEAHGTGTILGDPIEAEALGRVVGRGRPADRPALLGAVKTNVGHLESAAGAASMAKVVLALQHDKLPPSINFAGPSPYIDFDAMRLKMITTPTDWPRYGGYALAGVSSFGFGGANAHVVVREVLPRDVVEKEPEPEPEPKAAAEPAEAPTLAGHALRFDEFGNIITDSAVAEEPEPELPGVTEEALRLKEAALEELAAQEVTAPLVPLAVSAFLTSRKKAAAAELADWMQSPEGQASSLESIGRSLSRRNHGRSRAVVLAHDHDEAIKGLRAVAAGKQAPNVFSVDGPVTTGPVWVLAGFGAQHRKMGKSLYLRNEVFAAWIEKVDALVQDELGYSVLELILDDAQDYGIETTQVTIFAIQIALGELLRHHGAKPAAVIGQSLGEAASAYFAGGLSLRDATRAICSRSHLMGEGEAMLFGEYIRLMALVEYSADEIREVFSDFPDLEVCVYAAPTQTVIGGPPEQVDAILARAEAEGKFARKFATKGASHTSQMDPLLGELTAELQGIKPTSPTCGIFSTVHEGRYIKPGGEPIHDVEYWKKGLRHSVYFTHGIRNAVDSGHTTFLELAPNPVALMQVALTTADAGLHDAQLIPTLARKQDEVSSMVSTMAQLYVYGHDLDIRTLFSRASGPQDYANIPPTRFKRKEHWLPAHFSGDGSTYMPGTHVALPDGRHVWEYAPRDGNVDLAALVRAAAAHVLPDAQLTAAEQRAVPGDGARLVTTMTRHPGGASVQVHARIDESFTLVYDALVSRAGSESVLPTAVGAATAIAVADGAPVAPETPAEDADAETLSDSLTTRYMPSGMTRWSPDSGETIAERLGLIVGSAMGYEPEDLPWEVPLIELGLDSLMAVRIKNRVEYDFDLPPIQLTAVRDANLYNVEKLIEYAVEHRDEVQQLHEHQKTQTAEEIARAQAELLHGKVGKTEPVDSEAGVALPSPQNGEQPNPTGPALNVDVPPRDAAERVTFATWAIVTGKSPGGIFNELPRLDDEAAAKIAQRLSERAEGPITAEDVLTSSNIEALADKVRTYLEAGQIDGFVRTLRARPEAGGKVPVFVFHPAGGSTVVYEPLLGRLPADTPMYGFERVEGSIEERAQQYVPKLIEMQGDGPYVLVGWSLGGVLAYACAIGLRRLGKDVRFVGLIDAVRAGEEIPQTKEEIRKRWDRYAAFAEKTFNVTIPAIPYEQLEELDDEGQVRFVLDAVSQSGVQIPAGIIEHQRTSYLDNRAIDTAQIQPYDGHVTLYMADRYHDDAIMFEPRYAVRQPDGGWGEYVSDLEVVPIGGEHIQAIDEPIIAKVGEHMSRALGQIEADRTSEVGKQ
UniProt Q4DA54, 1-478: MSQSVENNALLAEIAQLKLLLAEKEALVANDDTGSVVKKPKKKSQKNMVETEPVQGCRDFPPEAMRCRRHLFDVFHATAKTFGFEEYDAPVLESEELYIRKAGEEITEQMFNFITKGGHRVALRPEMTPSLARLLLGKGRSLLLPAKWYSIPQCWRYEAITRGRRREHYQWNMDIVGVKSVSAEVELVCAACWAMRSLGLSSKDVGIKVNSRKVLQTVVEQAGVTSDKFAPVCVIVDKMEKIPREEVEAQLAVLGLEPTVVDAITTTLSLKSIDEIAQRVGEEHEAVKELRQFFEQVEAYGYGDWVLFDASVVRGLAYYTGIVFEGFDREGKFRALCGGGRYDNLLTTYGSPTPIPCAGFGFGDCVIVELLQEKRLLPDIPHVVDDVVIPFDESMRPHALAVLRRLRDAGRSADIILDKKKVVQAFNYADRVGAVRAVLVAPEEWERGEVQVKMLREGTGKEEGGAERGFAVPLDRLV
UniProt P9WFT3, whole entry: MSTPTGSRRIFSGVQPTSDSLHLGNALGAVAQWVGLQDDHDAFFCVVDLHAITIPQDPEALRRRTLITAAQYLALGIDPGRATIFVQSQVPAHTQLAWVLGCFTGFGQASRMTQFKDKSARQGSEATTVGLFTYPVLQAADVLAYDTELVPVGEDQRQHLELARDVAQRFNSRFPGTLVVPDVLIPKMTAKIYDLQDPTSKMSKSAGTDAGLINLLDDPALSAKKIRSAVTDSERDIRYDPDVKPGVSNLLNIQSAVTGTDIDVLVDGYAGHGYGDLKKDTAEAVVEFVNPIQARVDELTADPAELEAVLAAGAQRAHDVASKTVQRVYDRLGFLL
UniProt P9WPC5, whole entry: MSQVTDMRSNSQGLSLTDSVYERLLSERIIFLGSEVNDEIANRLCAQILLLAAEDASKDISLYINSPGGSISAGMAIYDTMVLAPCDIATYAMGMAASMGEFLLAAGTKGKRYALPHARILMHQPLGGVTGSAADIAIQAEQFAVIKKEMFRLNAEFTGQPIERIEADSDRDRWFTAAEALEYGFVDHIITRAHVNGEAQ
UniProt P9WPC3, whole entry partner: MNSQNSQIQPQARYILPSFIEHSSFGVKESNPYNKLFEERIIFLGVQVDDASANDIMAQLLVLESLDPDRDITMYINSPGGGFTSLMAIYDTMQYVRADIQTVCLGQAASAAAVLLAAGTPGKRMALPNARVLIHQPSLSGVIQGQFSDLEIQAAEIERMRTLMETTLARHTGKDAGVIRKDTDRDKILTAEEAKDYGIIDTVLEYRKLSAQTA

Measurements from “University of Dundee, Small-Polar-MMV Screening Library” (2021), ChEMBL document CHEMBL3988442.

Results are given as percent effect.
The controls that fix the scale are not given in the record; negative values are as filed.
This is an unselected part of the compounds tested.
A dash means the value is not listed here; it may have been measured.

A: 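Enzyme assay of the thioesterase domain of polyketide synthase 13; the read-out is not stated. Target: Polyketide synthase Pks13, Mycobacterium tuberculosis (UniProt I6X8D2). Tested at 30 µM. Higher reads as stronger inhibition (inferred from which compounds were picked for retests). About 67,000 compounds were tested under these conditions; 0.46% (about 300) showed 50% or more at least once.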
B: 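Histidine-tRNA ligase, Trypanosoma cruzi CL Brener (UniProt Q4DA54). Enzyme assay of histidyl-tRNA synthetase; the read-out is not stated. Concentration: 30 µM. The record gives no direction; compounds that gave an IC50 in retests scored well above the rest, so higher reads as stronger inhibition. About 69,000 compounds were tested under these conditions; 0.045% (about 31) showed 50% or more at least once.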
C: 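Enzyme assay of tryptophanyl-tRNA synthetase; the read-out is not stated. Target: Tryptophan-tRNA ligase, Mycobacterium tuberculosis (UniProt P9WFT3). Concentration: 10 µM. Higher most likely means stronger inhibition; the record gives no direction and few retests gave an IC50. Of about 65,000 compounds tested this way, about 64 (0.098%) reached 50% or more in at least one test.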
D: 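ClpP1P2, Mycobacterium tuberculosis (UniProt P9WPC5 and UniProt P9WPC3). Protease assay of ClpP1P2, read by the AMC dye that it sets free. Tested at 50 µM. Higher reads as stronger inhibition, judged from the few compounds that gave an IC50. Most other retested compounds had strongly negative values. Of about 69,000 compounds tested this way, about 10 (0.015%) reached 50% or more in at least one test.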

Compound | A | B | C | D
Cc1ccc(C(=O)N2CCN(C(=O)NC(C)Cn3ccnc3)CC2)o1 (centres undefined) | -48.69 | -1.901 | -3.616 | 5.048
COCCN(C)C(=O)c1ccccc1-n1cc(CN(C)C)cn1 | -2.614 | -7.463 | -1.449 | -0.932
CCc1nccn1C1CCCN(C(=O)c2cnc[nH]2)C1 (centres undefined) | -2.778 | 2.5 | -0.3298 | -11.88
Cc1nc(NC(=O)c2nn(-c3ccc(F)cc3C)cc2O)n[nH]1 | -10.2 | 7 | 1.834 | -11.62
O=C(c1cccc(-n2cnnn2)c1)N1CCC2(CC1)OCCO2 | 5.873 | 7.035 | 3.121 | 20.33
CCN(CC1CCOC1)C(=O)c1ccccc1S(C)(=O)=O (centres undefined) | -23.32 | 1.734 | -2.861 | -27.37
CCc1nc2n(n1)CC(NCCC(=O)Nc1cc(C)on1)CC2 (centres undefined) | 6.477 | 3.509 | -4.427 | -9.616
COC(=O)c1ccc(N(C(=O)c2cccnc2C)C(C)C)c(C)c1 | -14.1 | 1.657 | -2.556 | 15.12
CC(C)=CCN1CCOC(Cn2cccn2)C1 (centres undefined) | -13.82 | 7.692 | 0.9654 | -15.24
CCOC(C)C(=O)Nc1cc(S(=O)(=O)NC2CC2)ccc1F (centres undefined) | 31.9 | 4.433 | 3.931 | -4.053
Cc1cccc(CN2C[C@@H]3COC[C@H](NS(C)(=O)=O)[C@@H]3C2)n1 | -7.831 | 8.571 | -12.15 | -7.969
COc1ccc(OC)c(C(=O)N2CCC(Nc3cccnc3)CC2)c1 | -1.615 | 9.045 | 4.77 | -0.542
Cc1cc(N(C)Cc2cc(C)on2)n2nc(C)c(C)c2n1 | 2.993 | 4.065 | 0.3791 | 2.242
Cn1ccc(C(=O)NCc2ccc(CN3CCCCC3)cc2)cc1=O | 4.225 | 6.286 | 0.7252 | -0.07978
Cc1cc(C)n(CC2CCCCN2C(=O)c2ccc3c(c2)OCO3)n1 (centres undefined) | -7.566 | 3.396 | -1.943 | -13.5
CC(=O)N1CCCN(Cc2csc(-c3ncccn3)n2)CC1 | -23.47 | 4.348 | -3.919 | 2.019
CCCC(=O)N1CCCN(C(=O)c2oc(C)nc2C)CC1 | -34.02 | -121.1 | 1.016 | -3.581
Cc1nc(COCC2CN(C(=O)N(C)C)Cc3nccn3C2)cs1 (centres undefined) | 1.264 | -1.111 | - | -7.866
N#CC1(NC(=O)c2cc(Cl)ccc2OC(F)F)CCOCC1 | -24.64 | 1.657 | 0.3067 | 2.465
CCCS(=O)(=O)NC(=O)c1ccc(CC)o1 | -12.19 | 2.618 | -3.067 | -9.935
Cc1noc(C)c1CN1CCCC2(CCN(C(=O)C3CC3)C2)C1 (centres undefined) | -7.801 | 1.442 | -3.151 | 1.254
O=C(CCOc1cccc(F)c1)N1CCCC(n2cncn2)C1 (centres undefined) | -7.053 | -0.3759 | -3.996 | 11.56
Cc1noc(C)c1-c1ccc(C2CCCN2C(=O)Cn2ccnc2)nc1 (centres undefined) | -7.718 | 6.716 | 21.86 | -1.002
Nc1cc2c(nn1)CCN(C(=O)c1ccccc1Oc1cccnc1)C2 | -5.839 | 13.79 | -5.29 | 3.125
CC(C)c1noc(C(C)S(=O)(=O)Cc2nc(C3CC3)no2)n1 (centres undefined) | -33.5 | 4.444 | -1.372 | 6.82
CC(C)NC(=O)c1nc(COc2ccc3c(c2)OCO3)no1 | 1.214 | 0 | -2.333 | -19.21
COCCN1CCn2c(CN(C)C(C)C)cnc2C1 | -4.091 | 3 | 4.241 | -13.02
O=C(c1cccnc1-n1cccn1)N1CCN(CC2CC2)CC1 | -14.91 | 0.8333 | -2.09 | -3.621
Cc1nc(C2CCCN2CC(=O)N(Cc2ccsc2)C2CC2)no1 (centres undefined) | -13.79 | 6.513 | 0.09717 | 2.842
Cc1noc(-c2ccnc(N3CCC(CN4CCOCC4)CC3)c2)n1 | 1.622 | 1.031 | 3.183 | -4.378
Cc1nn(C)c2c(NCc3cccnc3)nc(C(C)C)nc12 | 2.288 | 2.632 | 2.007 | 9.278
O=C(CNC1CCc2ncnn2C1)N(Cc1cccs1)C1CC1 (centres undefined) | -0.4081 | 6.404 | 3.66 | -19.36
COCC(C)NC(=O)c1cc(C)n(-c2cccc(OC)c2)c1C (centres undefined) | -8.473 | 0 | -11.23 | -13.35
CCc1nsc(N2CCOC3(CCCC3)C2)n1 | 0.6786 | -1.031 | -2.428 | -13.61
COc1ccc(OC)c(C(=O)N2C[C@H]3CC[C@@H]2CN(C)C3)c1 | 2.197 | 3.529 | -2.465 | 18.31
Cc1cnc(CNc2ccccc2CN(C)C(=O)c2cccs2)o1 | 12.62 | 2.186 | -2.385 | 12.11
COc1cccc(F)c1-c1c[nH]c(C)n1 | 4.812 | 10.1 | 5.642 | 7.509
O=C1CC(NCc2ccc(Cl)s2)CN1Cc1cccc(F)c1 (centres undefined) | 0.2079 | 0 | 2.803 | -35.96
O=C(NCCCn1cncn1)NCC(c1ccccc1)N1CCCC1 (centres undefined) | -23.07 | 4.151 | -2.424 | 1.825
CCc1nc(NCCn2cccn2)c2c(n1)c(C)nn2C | 5.908 | 4.348 | 0.6477 | -7.169
CCNC(=O)CN1CCN(c2cc(C)nc(-c3ccncc3)n2)CC1 | -8.157 | 18 | 2.714 | -0.6623
COCCN(C)C[C@H]1C[C@@H](CO)CN(C(=O)c2ccn(C)c(=O)c2)C1 | -12.64 | 7.071 | 4 | -3.34
c1coc(CN2CCc3ncnc(C4CCOC4)c3CC2)c1 (centres undefined) | -34.36 | 1.493 | 0.09295 | -19.03
CC(=O)N1CCC2(CCN(CC3CCCCC3)C2)CC1 | -25.4 | 6.796 | -3.476 | -10.17
O=C(Nc1cnccn1)[C@@H]1C[C@H]2OCC[C@H]2N(c2ncc(F)cn2)C1 | -5.282 | -1.266 | -0.5394 | 6.27
COc1ccc(F)cc1C(C)NC(=O)Nc1nncs1 (centres undefined) | -33.21 | -2.326 | 7.652 | 18.94
CCC(C)N(C)C(=O)Nc1ccc(N2CCSCC2)cc1C (centres undefined) | -19.32 | -0.4926 | -1.012 | -9.538
CC(C)Cc1noc(CN2CCN(C(=O)c3cccs3)CC2)n1 | -5.262 | -0.9804 | -1.505 | -14.38
CCOCc1nnc(NCc2cccc(C)c2)o1 | -26.38 | 2.041 | 6.381 | -2.924
COc1cc(CN2CC[C@@H](N3CCCCCC3)[C@H](O)C2)cc(Cl)c1OC | -11.84 | 10.05 | 2.271 | -9.404
OC1(CNCCc2nc(Cc3ccccc3)no2)CNCCOC1 (centres undefined) | -33.04 | 1.02 | -0.1679 | -3.311
CCOc1ccccc1CNC(=O)c1cnn(CC)c1C(F)(F)F | 9.773 | 3.659 | 1.84 | -14.31
CC(C)n1cnc2c1C(C(=O)N(C)C)N(Cc1ccccc1)CC2 (centres undefined) | -4.351 | 6.863 | -3.092 | -24.35
Cc1nn(C)c(Cl)c1C(=O)NCC(c1ccsc1)N(C)C (centres undefined) | -49.14 | -0.7519 | -4.013 | 8.316
COCCC(C)NS(=O)(=O)c1ccc(C)c(N(C)C)c1 (centres undefined) | -14.22 | 6.077 | -6.118 | -15.97
CC1N(c2cnn(C)c2)C(=O)COC12CCN(c1ncccn1)CC2 (centres undefined) | -10.28 | -0.5587 | - | -3.095
CCC1=NC2(CCC(C(=O)Nc3ccc(F)cc3)CC2)C(=O)N1C (centres undefined) | -8.01 | 4.444 | - | -5.871
CCCN1CCC(c2nc3ccc(C)cn3n2)CC1 | -4.566 | 2.513 | - | 3.053
c1cncc(CNc2cncc(C3CCCN3)n2)c1 (centres undefined) | 19.7 | 11.63 | -4.052 | -10.98
COc1ccccc1C1(CNc2cn[nH]c(=O)c2Cl)CC1 | -28.83 | 4.211 | -0.2865 | -2.07
CC(C)Nc1ncnc2c1CCN(C(=O)c1ccccc1F)CC2 | -18.9 | 10.92 | 3.438 | 5.556
CSc1nnc(CC2CCN(C(=O)CCc3cccnc3)CC2)n1C | 4.495 | 4.598 | -1.521 | -7.06
CS(=O)(=O)c1ccc(CN2CCCCC2c2ccc(F)cc2)cc1 (centres undefined) | -1.424 | 2.469 | -2.308 | 8.427
Cc1ccc(C2CN(Cc3cnc(-c4ccccn4)s3)CCO2)o1 (centres undefined) | -6.144 | 6.358 | -4.759 | -10.2
Cc1noc(CN2CC=C(c3cnn(C4CCS(=O)(=O)C4)c3)CC2)n1 (centres undefined) | -33.68 | 9.091 | 0.6791 | -3.084

For reference, 6 entries once more:

Compound,A,B,C,D
CC(C)c1noc(C(C)S(=O)(=O)Cc2nc(C3CC3)no2)n1 (centres undefined),-33.5,4.444,-1.372,6.82
Cc1nc(COCC2CN(C(=O)N(C)C)Cc3nccn3C2)cs1 (centres undefined),1.264,-1.111,-,-7.866
COCCN(C)C(=O)c1ccccc1-n1cc(CN(C)C)cn1,-2.614,-7.463,-1.449,-0.932
O=C(Nc1cnccn1)[C@@H]1C[C@H]2OCC[C@H]2N(c2ncc(F)cn2)C1,-5.282,-1.266,-0.5394,6.27
COCCN(C)C[C@H]1C[C@@H](CO)CN(C(=O)c2ccn(C)c(=O)c2)C1,-12.64,7.071,4,-3.34
Cn1ccc(C(=O)NCc2ccc(CN3CCCCC3)cc2)cc1=O,4.225,6.286,0.7252,-0.07978